Source: publication PMC5428335
These are yes or no findings as the source states them, for the method shown. Binding seen in cells or lysates may run through a third protein. Some binding calls cover weakened binding; strength is not graded here.

Sequences of proteins named here, by UniProt entry; tags and fusion partners are left off.
UniProt Q8IY31: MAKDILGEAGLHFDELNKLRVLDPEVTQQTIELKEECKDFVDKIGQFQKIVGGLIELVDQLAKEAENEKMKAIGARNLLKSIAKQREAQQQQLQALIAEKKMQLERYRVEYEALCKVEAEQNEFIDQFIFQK
UniProt Q99996: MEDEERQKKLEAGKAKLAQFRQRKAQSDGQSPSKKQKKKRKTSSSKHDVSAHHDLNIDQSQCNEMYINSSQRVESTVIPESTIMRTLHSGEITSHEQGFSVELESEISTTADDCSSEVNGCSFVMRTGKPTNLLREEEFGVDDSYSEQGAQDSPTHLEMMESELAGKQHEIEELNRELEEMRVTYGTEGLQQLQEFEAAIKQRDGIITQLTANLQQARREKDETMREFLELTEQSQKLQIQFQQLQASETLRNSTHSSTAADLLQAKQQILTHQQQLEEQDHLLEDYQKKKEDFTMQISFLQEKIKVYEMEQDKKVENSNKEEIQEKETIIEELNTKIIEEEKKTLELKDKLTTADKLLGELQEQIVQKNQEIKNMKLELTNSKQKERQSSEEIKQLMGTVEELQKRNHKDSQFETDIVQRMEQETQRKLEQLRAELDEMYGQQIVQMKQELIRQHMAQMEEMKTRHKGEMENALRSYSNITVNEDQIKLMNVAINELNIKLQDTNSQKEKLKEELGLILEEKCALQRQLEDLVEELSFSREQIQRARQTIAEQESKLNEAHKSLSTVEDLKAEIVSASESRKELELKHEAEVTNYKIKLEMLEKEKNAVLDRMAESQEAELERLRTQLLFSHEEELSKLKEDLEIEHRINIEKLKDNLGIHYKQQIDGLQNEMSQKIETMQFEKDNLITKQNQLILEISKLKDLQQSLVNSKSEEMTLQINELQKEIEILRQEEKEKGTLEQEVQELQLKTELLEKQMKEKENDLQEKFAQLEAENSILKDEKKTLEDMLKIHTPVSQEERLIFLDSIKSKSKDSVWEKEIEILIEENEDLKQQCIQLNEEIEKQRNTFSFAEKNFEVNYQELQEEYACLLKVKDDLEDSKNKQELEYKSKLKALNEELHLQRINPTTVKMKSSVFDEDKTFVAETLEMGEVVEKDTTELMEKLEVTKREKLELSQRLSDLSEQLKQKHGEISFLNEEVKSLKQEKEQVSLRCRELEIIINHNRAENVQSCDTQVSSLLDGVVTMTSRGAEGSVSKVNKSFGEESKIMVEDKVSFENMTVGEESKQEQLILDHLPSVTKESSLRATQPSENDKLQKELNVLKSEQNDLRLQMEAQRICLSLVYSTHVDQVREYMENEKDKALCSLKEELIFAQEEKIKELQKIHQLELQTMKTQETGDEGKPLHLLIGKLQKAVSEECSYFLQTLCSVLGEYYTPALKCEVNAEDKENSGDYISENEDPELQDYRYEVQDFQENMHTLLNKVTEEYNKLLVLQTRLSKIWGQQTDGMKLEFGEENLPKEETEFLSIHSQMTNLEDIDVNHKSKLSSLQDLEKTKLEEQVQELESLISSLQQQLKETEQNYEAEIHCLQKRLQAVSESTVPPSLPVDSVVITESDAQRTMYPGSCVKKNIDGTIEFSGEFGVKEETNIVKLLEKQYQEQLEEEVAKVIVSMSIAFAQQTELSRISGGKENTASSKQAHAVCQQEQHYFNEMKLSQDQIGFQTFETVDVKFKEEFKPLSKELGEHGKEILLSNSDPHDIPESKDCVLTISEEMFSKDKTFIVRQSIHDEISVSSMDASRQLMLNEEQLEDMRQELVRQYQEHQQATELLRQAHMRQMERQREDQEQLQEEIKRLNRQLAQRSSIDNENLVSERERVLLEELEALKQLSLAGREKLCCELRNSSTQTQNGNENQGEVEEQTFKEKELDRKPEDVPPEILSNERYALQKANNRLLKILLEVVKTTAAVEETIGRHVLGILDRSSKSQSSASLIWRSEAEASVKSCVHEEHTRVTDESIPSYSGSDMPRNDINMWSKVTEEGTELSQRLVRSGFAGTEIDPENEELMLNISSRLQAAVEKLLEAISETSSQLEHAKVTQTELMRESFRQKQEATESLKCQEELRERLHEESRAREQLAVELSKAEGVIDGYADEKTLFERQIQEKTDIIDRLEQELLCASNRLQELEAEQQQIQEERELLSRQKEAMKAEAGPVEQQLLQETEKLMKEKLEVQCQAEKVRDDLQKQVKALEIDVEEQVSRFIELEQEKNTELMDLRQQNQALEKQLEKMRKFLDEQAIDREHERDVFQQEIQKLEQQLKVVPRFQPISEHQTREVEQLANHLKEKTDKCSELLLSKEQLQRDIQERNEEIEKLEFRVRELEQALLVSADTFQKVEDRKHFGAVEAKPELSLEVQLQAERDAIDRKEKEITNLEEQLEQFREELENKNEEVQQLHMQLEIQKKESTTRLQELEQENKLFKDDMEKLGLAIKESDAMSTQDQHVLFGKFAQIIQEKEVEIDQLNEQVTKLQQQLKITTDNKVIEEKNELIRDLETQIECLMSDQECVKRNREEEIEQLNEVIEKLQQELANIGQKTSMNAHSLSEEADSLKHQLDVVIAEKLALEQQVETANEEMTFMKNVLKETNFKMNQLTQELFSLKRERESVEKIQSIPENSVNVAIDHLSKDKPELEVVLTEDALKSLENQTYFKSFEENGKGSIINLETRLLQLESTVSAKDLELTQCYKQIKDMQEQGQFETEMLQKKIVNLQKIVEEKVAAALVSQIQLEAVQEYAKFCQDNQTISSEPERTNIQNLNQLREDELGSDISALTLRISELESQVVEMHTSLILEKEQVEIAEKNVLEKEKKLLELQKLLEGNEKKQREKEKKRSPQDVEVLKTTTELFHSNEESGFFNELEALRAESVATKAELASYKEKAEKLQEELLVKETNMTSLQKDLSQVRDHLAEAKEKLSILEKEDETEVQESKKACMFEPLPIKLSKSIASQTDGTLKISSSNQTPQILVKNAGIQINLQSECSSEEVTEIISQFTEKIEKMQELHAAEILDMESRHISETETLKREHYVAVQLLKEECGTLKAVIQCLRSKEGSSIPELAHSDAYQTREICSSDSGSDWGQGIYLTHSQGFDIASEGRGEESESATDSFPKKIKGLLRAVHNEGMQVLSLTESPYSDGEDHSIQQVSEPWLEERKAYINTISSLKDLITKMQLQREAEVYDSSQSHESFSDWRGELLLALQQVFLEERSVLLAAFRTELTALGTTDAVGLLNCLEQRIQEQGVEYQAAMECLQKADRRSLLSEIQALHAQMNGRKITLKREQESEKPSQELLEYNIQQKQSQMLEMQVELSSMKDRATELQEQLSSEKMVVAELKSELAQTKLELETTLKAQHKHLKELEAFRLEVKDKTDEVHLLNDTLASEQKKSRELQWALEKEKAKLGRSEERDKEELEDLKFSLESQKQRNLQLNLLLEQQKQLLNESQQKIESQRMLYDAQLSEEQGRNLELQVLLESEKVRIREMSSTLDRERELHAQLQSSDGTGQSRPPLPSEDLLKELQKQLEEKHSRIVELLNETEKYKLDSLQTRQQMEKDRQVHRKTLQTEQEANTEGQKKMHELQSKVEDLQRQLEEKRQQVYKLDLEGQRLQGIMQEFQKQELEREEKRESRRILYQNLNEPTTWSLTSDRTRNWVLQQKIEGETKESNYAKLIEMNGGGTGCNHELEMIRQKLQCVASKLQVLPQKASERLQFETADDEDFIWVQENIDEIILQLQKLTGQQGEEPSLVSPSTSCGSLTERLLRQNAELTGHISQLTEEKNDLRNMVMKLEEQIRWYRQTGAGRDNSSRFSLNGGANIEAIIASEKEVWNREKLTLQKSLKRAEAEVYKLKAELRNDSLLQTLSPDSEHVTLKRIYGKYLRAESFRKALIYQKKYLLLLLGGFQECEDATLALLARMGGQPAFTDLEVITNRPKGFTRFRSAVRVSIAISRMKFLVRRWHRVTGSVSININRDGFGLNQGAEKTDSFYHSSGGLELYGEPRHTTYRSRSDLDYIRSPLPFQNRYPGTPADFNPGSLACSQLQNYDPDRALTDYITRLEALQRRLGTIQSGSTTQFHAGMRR

Tests used:
[1] = target: intraflagellar transport 20 (IFT20) (human (endogenous in SaOS2)) (UniProt Q8IY31); experiment: proximity ligation; in situ PLA (Duolink kit) in fixed SaOS2 cells with anti-IFT20 and anti-AKAP450 or anti-GM130 antibodies; si-IFT20 as control
[2] = target: intraflagellar transport 20 (IFT20) (human (endogenous in SaOS2)) (UniProt Q8IY31); experiment: co-IP; SaOS2 whole-cell lysates (50 mM Tris-HCl pH 7.5, 150 mM NaCl, 5 mM EDTA, 0.5% NP-40; briefly sonicated) immunoprecipitated with anti-IFT20 antibody or Ctrl IgG; Western blotting

Molecule | binding [1] | binding [2]
AKAP450 (from UniProt Q99996 1-3907) | binds | binds
GM130 (protein, UniProt Q08379 1-1002) MWPQPRLPPRPAMSEETRQSKLAAAKKKLREYQQRNSPGVPTGAKKKKKIKNGSNPETTTSGGCHSPEDTPKDNAATLQPSDDTVLPGGVPSPGASLTSMAASQNHDADNVPNLMDETKTFSSTESLRQLSQQLNGLVCESATCVNGEGPASSANLKDLESRYQQLAVALDSSYVTNKQLNITIEKLKQQNQEITDQLEEEKKECHQKQGALREQLQVHIQTIGILVSEKAELQTALAHTQHAARQKEGESEDLASRLQYSRRRVGELERALSAVSTQQKKADRYNKELTKERDALRLELYKNTQSNEDLKQEKSELEEKLRVLVTEKAGMQLNLEELQKKLEMTELLLQQFSSRCEAPDANQQLQQAMEERAQLEAHLGQVMESVRQLQMERDKYAENLKGESAMWRQRMQQMSEQVHTLREEKECSMSRVQELETSLAELRNQMAEPPPPEPPAGPSEVEQQLQAEAEHLRKELEGLAGQLQAQVQDNEGLSRLNREQEERLLELERAAELWGEQAEARRQILETMQNDRTTISRALSQNRELKEQLAELQSGFVKLTNENMEITSALQSEQHVKRELGKKLGELQEKLSELKETVELKSQEAQSLQQQRDQYLGHLQQYVAAYQQLTSEKEVLHNQLLLQTQLVDQLQQQEAQGKAVAEMARQELQETQERLEAATQQNQQLRAQLSLMAHPGEGDGLDREEEEDEEEEEEEAVAVPQPMPSIPEDLESREAMVAFFNSAVASAEEEQARLRGQLKEQRVRCRRLAHLLASAQKEPEAAAPAPGTGGDSVCGETHRALQGAMEKLQSRFMELMQEKADLKERVEELEHRCIQLSGETDTIGEYIALYQSQRAVLKERHREKEEYISRLAQDKEEMKVKLLELQELVLRLVGDRNEWHGRFLAAAQNPADEPTSGAPAPQELGAANQQGDLCEVSLAGSVEPAQGEAREGSPRDNPTAQQIMQLLREMQNPRERPGLGSNPCIPFFYRADENDEVKITVI | binds | binds
